Read-outs that look alike come from different tables or passages of the source. No constants are given. Whether binding was seen depends on the method and setting. Some entries that bind do so weakly or less than the wild type. Blank lines part the entries; values can stand above or below the molecule they belong to.
Key:
Assay in all cases: two-hybrid; … GAL4 Two-Hybrid System 3, S. cerevisiae AH109 co-transformed with pGBKT7 and pGADT7 fusions; growth on SD/-Ade/-His/-Leu/-Trp, 4 days at 30°C; “each against all” screen (26×26) and later tests with refined constructs
[1] = biological target: T1, NLRC4 CARD (UniProt Q9NPP4)
T1 sequence: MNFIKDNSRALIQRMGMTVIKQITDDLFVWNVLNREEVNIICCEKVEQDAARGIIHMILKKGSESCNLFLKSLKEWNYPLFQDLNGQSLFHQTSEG

Amino acid sequences for entries named in this document (tags omitted). A change or cut given only in a name is not applied to a line headed by its entry. Chains listed by the source or under a name are the forms on record and can include a tag or linker. Residues count along the entry.
NOD2 CARD (1+2) (Q9HC29, residues 1-267): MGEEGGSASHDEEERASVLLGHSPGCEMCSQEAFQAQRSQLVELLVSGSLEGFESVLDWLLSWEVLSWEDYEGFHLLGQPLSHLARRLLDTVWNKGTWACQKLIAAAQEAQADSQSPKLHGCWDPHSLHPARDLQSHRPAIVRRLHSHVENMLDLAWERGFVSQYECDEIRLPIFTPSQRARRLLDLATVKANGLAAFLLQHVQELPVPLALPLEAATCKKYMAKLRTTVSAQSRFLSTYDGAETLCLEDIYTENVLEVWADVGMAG
NOD2 CARD (1) (Q9HC29, residues 1-116): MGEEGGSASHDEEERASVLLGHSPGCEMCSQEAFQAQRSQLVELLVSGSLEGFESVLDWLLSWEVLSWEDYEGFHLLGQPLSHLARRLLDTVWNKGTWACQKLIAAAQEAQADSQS
NOD2 CARD (2) (Q9HC29, residues 135-255): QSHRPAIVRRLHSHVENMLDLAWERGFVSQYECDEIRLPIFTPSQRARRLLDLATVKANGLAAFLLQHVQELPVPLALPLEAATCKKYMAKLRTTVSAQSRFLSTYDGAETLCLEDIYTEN
NOD2 CARD (1+2) E69K (Q9HC29, form named): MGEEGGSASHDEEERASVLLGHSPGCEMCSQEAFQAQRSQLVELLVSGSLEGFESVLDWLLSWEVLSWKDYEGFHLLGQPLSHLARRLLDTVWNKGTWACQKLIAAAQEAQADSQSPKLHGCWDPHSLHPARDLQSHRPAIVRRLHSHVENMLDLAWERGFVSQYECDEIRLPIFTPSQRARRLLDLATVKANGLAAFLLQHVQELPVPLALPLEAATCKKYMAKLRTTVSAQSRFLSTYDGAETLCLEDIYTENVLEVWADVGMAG
NOD2 CARD (1+2) R132Q (Q9HC29, form named): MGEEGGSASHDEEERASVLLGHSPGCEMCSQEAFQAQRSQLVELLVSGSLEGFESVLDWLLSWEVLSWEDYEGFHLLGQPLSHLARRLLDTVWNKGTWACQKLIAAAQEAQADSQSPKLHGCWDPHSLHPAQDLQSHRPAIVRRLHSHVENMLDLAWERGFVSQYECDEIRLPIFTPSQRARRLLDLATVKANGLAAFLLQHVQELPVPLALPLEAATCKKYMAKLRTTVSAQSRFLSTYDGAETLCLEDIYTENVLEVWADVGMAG
NOD2 CARD (1+2) D70K (Q9HC29, form named): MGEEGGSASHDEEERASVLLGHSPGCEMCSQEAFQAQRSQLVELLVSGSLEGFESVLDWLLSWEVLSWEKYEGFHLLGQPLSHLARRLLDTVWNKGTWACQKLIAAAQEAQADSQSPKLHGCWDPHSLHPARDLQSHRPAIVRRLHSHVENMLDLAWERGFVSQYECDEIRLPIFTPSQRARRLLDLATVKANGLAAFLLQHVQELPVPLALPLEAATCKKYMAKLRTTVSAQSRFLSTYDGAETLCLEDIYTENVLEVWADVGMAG
UniProt Q96P20, residues 1-189: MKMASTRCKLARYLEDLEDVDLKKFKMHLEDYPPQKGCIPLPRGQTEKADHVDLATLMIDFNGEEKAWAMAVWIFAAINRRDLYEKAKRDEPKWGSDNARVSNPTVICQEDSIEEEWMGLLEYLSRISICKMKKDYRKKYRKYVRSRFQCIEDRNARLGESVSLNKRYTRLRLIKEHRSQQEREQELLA
UniProt Q9ULZ3: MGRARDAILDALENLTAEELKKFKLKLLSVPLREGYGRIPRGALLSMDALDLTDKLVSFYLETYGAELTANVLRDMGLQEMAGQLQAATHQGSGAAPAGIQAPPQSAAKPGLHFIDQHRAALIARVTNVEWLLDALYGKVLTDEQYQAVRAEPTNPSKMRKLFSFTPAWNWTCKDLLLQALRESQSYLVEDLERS
UniProt P55211, residues 1-97: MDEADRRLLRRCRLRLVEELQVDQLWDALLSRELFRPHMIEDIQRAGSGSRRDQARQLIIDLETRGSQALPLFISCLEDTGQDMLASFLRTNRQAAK

[2] = biological target: T2, NOD1 CARD (1–110) (UniProt Q9Y239)
T2 sequence: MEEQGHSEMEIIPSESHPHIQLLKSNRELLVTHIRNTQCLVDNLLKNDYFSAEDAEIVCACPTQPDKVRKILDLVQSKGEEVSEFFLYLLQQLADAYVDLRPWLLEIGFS

[3] = biological target: T3, NLRP1 CARD (UniProt Q9C000)
T3 sequence: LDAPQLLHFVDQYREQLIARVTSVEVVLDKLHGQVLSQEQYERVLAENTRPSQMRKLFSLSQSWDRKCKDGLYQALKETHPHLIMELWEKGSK

[4] = biological target: T4, NLRP1 PYD (UniProt Q9C000)
T4 sequence: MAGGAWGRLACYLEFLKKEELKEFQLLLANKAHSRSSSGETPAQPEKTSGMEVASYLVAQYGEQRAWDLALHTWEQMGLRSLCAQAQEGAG

[5] = biological target: T5, NLRP12 PYD (UniProt P59046)
T5 sequence: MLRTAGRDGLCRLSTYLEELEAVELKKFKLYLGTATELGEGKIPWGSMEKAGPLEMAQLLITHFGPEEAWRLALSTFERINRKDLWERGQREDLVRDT

[6] = biological target: NOD2 CARD (1) (human) (UniProt Q9HC29)
[7] = biological target: NOD2 CARD (2) (human) (UniProt Q9HC29)
[8] = biological target: T6, NOD1 CARD (16–108) (UniProt Q9Y239)
T6 sequence: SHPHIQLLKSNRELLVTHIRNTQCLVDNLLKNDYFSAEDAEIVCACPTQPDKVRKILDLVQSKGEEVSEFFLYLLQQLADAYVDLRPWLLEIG

[9] = biological target: NOD2 CARD (1+2) (human) (UniProt Q9HC29)
[10] = biological target: NOD2 CARD (1) (human) (UniProt Q9HC29); remark: listed apart in the source
[11] = biological target: NOD2 CARD (1+2) E69K (human) (UniProt Q9HC29)
[12] = biological target: NOD2 CARD (2) (human) (UniProt Q9HC29); remark: listed apart in the source
[13] = biological target: T2, NOD1 CARD (1–110); remark: listed apart in the source
[14] = biological target: NOD2 CARD (1+2) (human) (UniProt Q9HC29); remark: listed apart in the source
[15] = biological target: NOD2 CARD (1+2) R132Q (human) (UniProt Q9HC29)
[16] = biological target: NOD2 CARD (1+2) D70K (human) (UniProt Q9HC29)
[17] = biological target: T1, NLRC4 CARD; remark: listed apart in the source
[18] = biological target: T6, NOD1 CARD (16–108); remark: listed apart in the source
[19] = biological target: T3, NLRP1 CARD; remark: listed apart in the source

binding [1]: no binding
binding [2]: no binding
Molecule: NLRP3 PYD+linker (from UniProt Q96P20 1-189) (domain or fragment)

binding [3]: no binding
binding [4]: no binding
binding [1]: binds
binding [5]: no binding
Molecule: ASC CARD (from UniProt Q9ULZ3 105-195) (domain or fragment)

binding [3]: no binding
binding [4]: no binding
binding [5]: no binding
Molecule: ASC full length (from UniProt Q9ULZ3 1-195)

binding [3]: no binding
binding [6]: no binding
binding [4]: no binding
binding [7]: no binding
binding [2]: no binding
binding [8]: no binding
binding [9]: no binding
Molecule: CASP9 CARD (from UniProt P55211 1-97) (domain or fragment)

binding [10]: no binding
binding [11]: binds
binding [12]: no binding
binding [13]: no binding
binding [14]: binds
binding [15]: binds
binding [16]: no binding
B1: NLRP12, PYD+linker (domain or fragment, UniProt P59046 1-224)
chain: MLRTAGRDGLCRLSTYLEELEAVELKKFKLYLGTATELGEGKIPWGSMEKAGPLEMAQLLITHFGPEEAWRLALSTFERINRKDLWERGQREDLVRDTPPGGPSSLGNQSTCLLEVSLVTPRKDPQETYRDYVRRKFRLMEDRNARLGECVNLSHRYTRLLLVKEHSNPMQVQQQLLDTGRGHARTVGHQASPIKIETLFEPDEERPEPPRTVVMQGAAGIGKS

binding [14]: no binding
B2: NLRP11, PYD+linker (domain or fragment, UniProt P59045 1-160)
chain: MAESDSTDFDLLWYLENLSDKEFQSFKKYLARKILDFKLPQFPLIQMTKEELANVLPISYEGQYIWNMLFSIFSMMRKEDLCRKIIGRRNRNQEACKAVMRRKFMLQWESHTFGKFHYKFFRDVSSDVFYILQLAYDSTSYYSANNLNVFLMGERASGKT

binding [10]: no binding
binding [17]: no binding
binding [12]: no binding
binding [13]: no binding
binding [18]: no binding
binding [14]: no binding
B3: NLRC4 CARD (domain or fragment, UniProt Q9NPP4 1-96)
chain: T1 sequence

binding [14]: no binding
B4: NLRP7, PYD+linker (domain or fragment, UniProt Q8WX94 1-185)
chain: MTSPQLEWTLQTLLEQLNEDELKSFKSLLWAFPLEDVLQKTPWSEVEEADGKKLAEILVNTSSENWIRNATVNILEEMNLTELCKMAKAEMMEDGQVQEIDNPELGDAEEDSELAKPGEKEGWRNSMEKQSLVWKNTFWQGDIDNFHDDVTLRNQRFIPFLNPRTPRKLTPYTVVLHGPAGVGKT

binding [19]: no binding
binding [17]: no binding
binding [13]: no binding
binding [18]: no binding
B5: NLRP1 CARD (domain or fragment, UniProt Q9C000 1373-1465)
chain: T3 sequence

binding [14]: no binding
B6: NLRP2, PYD+linker (domain or fragment, UniProt Q9NX02 1-220)
chain: MVSSAQMGFNLQALLEQLSQDELSKFKYLITTFSLAHELQKIPHKEVDKADGKQLVEILTTHCDSYWVEMASLQVFEKMHRMDLSERAKDEVREAALKSFNKRKPLSLGITRKERPPLDVDEMLERFKTEAQAFTETKGNVICLGKEVFKGKKPDKDNRCRYILKTKFREMWKSWPGDSKEVQVMAERYKMLIPFSNPRVLPGPFSYTVVLYGPAGLGKT

binding [14]: no binding
B7: NLRP10, PYD+linker (domain or fragment, UniProt Q86W26 1-180)
chain: MAMAKARKPREALLWALSDLEENDFKKLKFYLRDMTLSEGQPPLARGELEGLIPVDLAELLISKYGEKEAVKVVLKGLKVMNLLELVDQLSHICLHDYREVYREHVRCLEEWQEAGVNGRYNQVLLVAKPSSESPESLACPFPEQELESVTVEALFDSGEKPSLAPSLVVLQGSAGTGKT

binding [13]: no binding
B8: NOD1 CARD (1–110) (domain or fragment, UniProt Q9Y239 1-110)
chain: T2 sequence

binding [13]: no binding
binding [18]: no binding
B9: NOD1 CARD (16–108) (domain or fragment, UniProt Q9Y239 16-108)
chain: T6 sequence
